The source of these data is article doi:10.1101/268466.

By UniProt entry, the sequences of proteins in these tests, tags left out.
UniProt Q9S823: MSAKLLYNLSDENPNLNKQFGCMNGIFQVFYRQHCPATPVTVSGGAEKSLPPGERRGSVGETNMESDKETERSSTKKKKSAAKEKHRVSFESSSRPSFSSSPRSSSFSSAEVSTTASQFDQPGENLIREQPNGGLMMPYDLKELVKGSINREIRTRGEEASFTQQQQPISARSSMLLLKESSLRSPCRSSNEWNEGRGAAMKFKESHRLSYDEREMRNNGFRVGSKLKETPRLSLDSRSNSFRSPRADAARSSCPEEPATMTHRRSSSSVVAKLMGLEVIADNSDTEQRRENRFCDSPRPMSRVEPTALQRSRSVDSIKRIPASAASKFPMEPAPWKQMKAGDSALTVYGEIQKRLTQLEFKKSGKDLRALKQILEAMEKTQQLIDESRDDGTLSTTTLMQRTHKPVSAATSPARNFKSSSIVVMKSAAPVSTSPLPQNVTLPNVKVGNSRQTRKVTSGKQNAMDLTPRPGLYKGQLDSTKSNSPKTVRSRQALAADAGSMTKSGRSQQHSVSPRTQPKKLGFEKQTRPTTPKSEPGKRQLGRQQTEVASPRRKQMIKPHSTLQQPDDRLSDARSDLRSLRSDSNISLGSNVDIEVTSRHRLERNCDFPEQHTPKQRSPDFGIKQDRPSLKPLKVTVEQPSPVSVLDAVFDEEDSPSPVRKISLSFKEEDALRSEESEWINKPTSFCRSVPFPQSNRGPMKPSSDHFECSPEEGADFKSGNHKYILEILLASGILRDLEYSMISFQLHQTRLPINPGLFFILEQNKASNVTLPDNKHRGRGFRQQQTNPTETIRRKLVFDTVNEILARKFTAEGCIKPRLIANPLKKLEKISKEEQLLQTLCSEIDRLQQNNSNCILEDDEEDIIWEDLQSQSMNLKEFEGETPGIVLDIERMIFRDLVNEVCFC
UniProt F4J061: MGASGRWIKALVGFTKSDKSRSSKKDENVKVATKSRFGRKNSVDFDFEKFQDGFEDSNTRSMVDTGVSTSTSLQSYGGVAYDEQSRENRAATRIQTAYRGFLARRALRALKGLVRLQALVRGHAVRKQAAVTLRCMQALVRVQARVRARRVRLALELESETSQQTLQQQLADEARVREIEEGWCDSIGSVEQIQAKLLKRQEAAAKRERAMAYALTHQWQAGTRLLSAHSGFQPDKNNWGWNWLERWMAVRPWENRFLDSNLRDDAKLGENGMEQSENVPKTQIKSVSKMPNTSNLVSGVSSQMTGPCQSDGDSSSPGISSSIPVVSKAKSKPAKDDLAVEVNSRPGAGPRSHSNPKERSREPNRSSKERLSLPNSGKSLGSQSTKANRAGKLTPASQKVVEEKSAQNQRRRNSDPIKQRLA

Assay [1] concerns the target YC-CaM2 (CaM2 fused N-terminally to the C-terminal half of YFP) (UniProt P0DH97). The assay can be described thus: split reporter.
Assay [2] has as its target YC-TRM1 (TON1 RECRUITMENT MOTIF1 fused to the C-terminal half of YFP) (UniProt Q9S823). In words: split reporter.

These are yes or no findings as the source states them, for the method shown. In cells and extracts the contact can be indirect. Some results given as binding are weak or reduced against the parent protein; the word gives no strength.

As for “YN-TRM1 (TON1 RECRUITMENT MOTIF1 fused to the N-terminal half of YFP) (from UniProt Q9S823 1-905)”, the binding entry in assay [1] was “no binding”.

Regarding “YN-IQD5 (IQD5 fused N-terminally to the N-terminal half of YFP) (from UniProt F4J061 1-422)”, the binding result in assay [1] was “binds”; in assay [2], “no binding”.
